Measurements reported in PubChem BioAssay AID1259308 (NCATS, 2017)

Test: 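Knock-downs that increase output of a recombinant reporter protein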 (primary screen)
System: human HEK293 embryonic kidney cells stably expressing firefly luciferase (HEK-CMV-Luc2-Hygro)
Knock-down reagent: single siRNA against human genes, 0.8 pmol siRNA per well
Duration: 72 h
Detection: 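Reporter luminescence and viable-cell signal on separate replicate plates, given as percent of non-targeting control and median/MAD z-scores, plus per-cell luciferase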
Scale: total luciferase, z-score and total luciferase, % of control: higher = more reporter protein produced; luciferase per cell, z-score: higher = more reporter output per viable cell; viable cells, % of control: higher = more viable cells
Hit rule: 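Active when the median/MAD z-score for overall luciferase is greater than 3; a gene was taken forward for validation with new siRNAs if at least two of its three siRNAs passed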
Meaning of the calls: active = raised luciferase; inactive = no rise
Here is one part, drawn at random, of about 59,000 deposited reagents. About 1,510 of all reagents (2.6%) were called active. 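Calls use total luciferase alone and ignore viability, so some active siRNAs may act by altering cell number.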 A number with no mark means an inactive call. Reagents against one gene are numbered here.

no.	Target gene	reagent	total luciferase, z-score	total luciferase, % of control	luciferase per cell, z-score	viable cells, % of control
1	SPRY4	1	2.53	132	2.89	69.1
2	SPRY4	2	-0.769	66.6	-0.206	78.6
3	SPRY4	3	-0.743	67.1	-0.865	94.2
4	RPS12P22	1	-2.65	29.2	-1.79	52.3
5	RPS12P22	2	-0.723	67.5	-0.574	87.7
6	RPS12P22	3	-2.84	25.4	-2.69	57.5
7	YIF1A	1	-0.539	71.2	-0.362	87.5
8	YIF1A	2	-0.77	66.6	-1.29	104
9	YIF1A	3	1.71	116	2.59	65.6
10	IQCK	1	3.42 (active)	150	2.1	96.4
11	IQCK	2	0.0627	83.1	0.0567	91.5
12	IQCK	3	0.202	85.9	-0.378	106
13	IFIT2	1	-0.266	76.6	0.052	84.4
14	IFIT2	2	-0.729	67.4	0.513	65.8
15	IFIT2	3	-0.575	70.4	-1.18	107
16	MAGI1	1	-0.0721	80.5	-0.286	96.9
17	MAGI1	2	-0.447	73	-0.625	96.2
18	MAGI1	3	-1.17	58.6	-0.182	68.8
19	LINC02915	1	0.376	89.4	1.18	73.2
20	LINC02915	2	-0.0962	80	0.242	83.8
21	LINC02915	3	3.73 (active)	156	2.17	98.5
22	SCX	1	3.01 (active)	142	2.01	93.3
23	SCX	2	-0.207	77.8	0.252	81.3
24	SCX	3	0.882	99.4	0.621	94.3
25	LIPI	1	-0.921	63.6	-0.348	77.8
26	LIPI	2	0.0277	82.4	-0.0331	92.9
27	LIPI	3	0.972	101	-0.04	114
28	GPR37	1	0.176	85.4	1.74	60.3
29	GPR37	2	0.414	90.1	0.0471	99.5
30	GPR37	3	0.254	86.9	0.109	94.4
31	UFSP2	1	0.879	99.4	0.87	88.3
32	UFSP2	2	-0.876	64.5	-0.622	84.9
33	UFSP2	3	-1.42	53.6	-1.29	84
34	BSDC1	1	-0.129	79.3	-0.167	92.6
35	BSDC1	2	-1.63	49.5	0.0111	55.1
36	BSDC1	3	-0.659	68.8	-0.216	81.4
37	HIVEP2	1	0.103	83.9	0.146	90.3
38	HIVEP2	2	0.0693	83.3	-0.85	116
39	HIVEP2	3	0.705	95.9	0.247	100
40	LSP1P4	1	-0.654	68.9	-0.444	86.5
41	LSP1P4	2	0.78	97.4	-0.179	114
42	LSP1P4	3	0.158	85	-0.295	103
43	RASL12	1	0.271	87.3	0.606	83.1
44	RASL12	2	0.408	90	0.884	79.7
45	RASL12	3	-0.976	62.5	0.983	53.9
46	IP6K1	1	-1.63	49.5	-1.77	88.2
47	IP6K1	2	2.31	128	1.29	102
48	IP6K1	3	0.548	92.8	-0.0385	105
49	TMEM53	1	0.205	86	-0.123	99.2
50	TMEM53	2	1.13	104	0.85	93.3
51	TMEM53	3	0.0129	82.1	0.323	84.3
52	POMGNT1	1	-0.315	75.6	-0.0471	85.6
53	POMGNT1	2	3.51 (active)	152	2.93	78.4
54	POMGNT1	3	0.471	91.2	0.913	80.2
55	RTN4IP1	1	-0.362	74.7	-0.597	97.7
56	RTN4IP1	2	-0.599	70	-0.92	99.6
57	RTN4IP1	3	0.197	85.8	0.0941	93.5

Called active, of those listed so far:
Target gene	reagent	total luciferase, z-score	total luciferase, % of control	luciferase per cell, z-score	viable cells, % of control
IQCK	1	3.42 (active)	150	2.1	96.4
LINC02915	3	3.73 (active)	156	2.17	98.5
SCX	1	3.01 (active)	142	2.01	93.3
POMGNT1	2	3.51 (active)	152	2.93	78.4
